## Screening data, single-dose tests

Chains of the proteins cited; added tags and fusions are not shown.
UniProt P9WPC5, whole entry: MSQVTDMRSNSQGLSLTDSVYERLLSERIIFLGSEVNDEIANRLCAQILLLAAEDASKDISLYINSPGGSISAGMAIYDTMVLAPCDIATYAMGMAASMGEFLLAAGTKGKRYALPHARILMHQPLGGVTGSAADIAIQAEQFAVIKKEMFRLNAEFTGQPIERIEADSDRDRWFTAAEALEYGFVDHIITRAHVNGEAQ
UniProt P9WPC3, whole entry partner: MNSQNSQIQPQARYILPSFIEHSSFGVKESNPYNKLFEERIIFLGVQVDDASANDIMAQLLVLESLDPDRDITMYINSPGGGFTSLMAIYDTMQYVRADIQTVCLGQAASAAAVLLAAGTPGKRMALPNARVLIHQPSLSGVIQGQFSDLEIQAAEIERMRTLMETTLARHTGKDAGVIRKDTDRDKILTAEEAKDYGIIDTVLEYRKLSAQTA
UniProt P9WNZ1, whole entry: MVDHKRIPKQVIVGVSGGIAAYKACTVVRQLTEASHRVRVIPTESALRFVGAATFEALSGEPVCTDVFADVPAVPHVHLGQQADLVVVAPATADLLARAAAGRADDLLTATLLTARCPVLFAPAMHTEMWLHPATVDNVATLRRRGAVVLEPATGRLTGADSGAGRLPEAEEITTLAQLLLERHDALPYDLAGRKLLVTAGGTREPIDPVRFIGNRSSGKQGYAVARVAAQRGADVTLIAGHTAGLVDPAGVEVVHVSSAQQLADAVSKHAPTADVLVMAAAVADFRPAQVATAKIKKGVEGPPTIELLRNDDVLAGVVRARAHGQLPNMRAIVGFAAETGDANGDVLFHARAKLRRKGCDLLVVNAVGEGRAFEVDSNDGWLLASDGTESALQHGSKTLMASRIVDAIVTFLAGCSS

Toxoplasma: 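Assay of Toxoplasma gondii numbers, read through their beta-galactosidase reporter with a colour substrate. Concentration: 10 µM. The record gives no direction; the compounds picked for IC50 retests had high values, so higher reads as fewer parasites. Size under these conditions: about 67,000 compounds, about 260 of them at 50% or above in at least one test.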
ClpP1P2: 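ClpP1P2, Mycobacterium tuberculosis (UniProt P9WPC5 and UniProt P9WPC3). Protease assay of ClpP1P2, read by the AMC dye that it sets free. Compounds at 50 µM. Higher reads as stronger inhibition, judged from the few compounds that gave an IC50. Most other retested compounds had strongly negative values. Size under these conditions: about 69,000 compounds, about 10 of them at 50% or above in at least one test.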
T. brucei: 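Whole-parasite assay of Trypanosoma brucei over 72 hours; the read-out is not stated. Concentration: 30 µM. The record gives no direction; compounds that gave an IC50 in retests scored well above the rest, so higher reads as stronger inhibition. Values scatter widely below zero; nearly all retest evidence comes from the higher of the two concentrations used. About 64,000 compounds were tested under these conditions; 1.5% (about 940) showed 50% or more at least once.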
CoaBC: 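Enzyme assay of CoaBC with a phosphate dye (Biomol Green) read at 650 nm. Target: Coenzyme A biosynthesis protein CoaBC, Mycobacterium tuberculosis (UniProt P9WNZ1). Concentration: 30 µM. Higher reads as stronger inhibition, judged from the few compounds that gave an IC50. Most strong results did not repeat in a second test. Size under these conditions: about 67,000 compounds, about 40 of them at 50% or above in at least one test.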

The filed quantity is “Percent Effect” (%). The controls that fix the scale are not given in the record; negative values are as filed. This is an unselected part of the compounds tested. A dash means the value is not listed here; it may have been measured.

compound,Toxoplasma,ClpP1P2,T. brucei,CoaBC
CCC(C(=O)NCC1CCN(c2ccncc2)CC1)N(C)C (stereo unspecified),-1.202,-11.66,-13.72,1.899
O=C(O)C(F)(F)F.[H][C@@]12CN(Cc3csc(C)n3)C[C@]1([H])CN(C(=O)c1cnccn1)C2,8.859,-,5.291,-
[H][C@]12CC[C@]([H])(CN(C(C)=O)C1)N(S(=O)(=O)c1ccccc1Cl)C2,5.206,-,-54.93,-
Cc1noc(C)c1CCC(=O)N1CCCN(Cc2cscn2)CC1,-9.315,21.8,-12.2,1.33
C[C@@H]1CN(Cc2cc(C(F)(F)F)ccc2F)CC[C@@]1(O)C1CC1,-1.14,4.804,-44.03,3.96
O=C(c1cncc(N2CC[C@@]3(O)CCNC[C@H]3C2)n1)N1CCCC1,-,-28.84,-,4.069
COCC(=O)N1CCC2(COCc3cnc(N4CCOCC4)nc32)C1 (stereo unspecified),-18.34,-0.9913,-245.2,0.25
CC(C)N1CC(NC(=O)c2ccc(Cl)s2)CC1=O (stereo unspecified),9.815,-6.907,-6.025,9.545
Cc1ccsc1C(=O)N1CCC(Nc2cccnc2)CC1,-15,-10.54,-36.61,11.79
Cl.Cl.Cl.c1cncc(CNc2ccc3nc(C4CCNCC4)nn3c2)c1,18.64,-,-35.98,-
O=C(NCc1ccccc1)N1CCC2(CC(=O)N(c3ccccc3)C2)C1 (stereo unspecified),-45.61,-9.376,-50.34,6.353
COc1cc(Cl)ccc1C(=O)N1CCCC(n2nc(C)nc2C)C1 (stereo unspecified),11.09,-8.185,-,-0.5249
COc1cc(CNc2nc(C(F)(F)F)no2)cc(OC)c1OC,-3.444,10.82,-27.71,0.2141
O=C(Cn1cc(-c2ccccc2)ncc1=O)Nc1nccs1,5.728,-18.4,21.42,-2.554
O=C(NCC(F)(F)F)C1CCCN(Cc2ccno2)C1 (stereo unspecified),1.622,5.976,-24.34,-5.366
Cc1cc(C)n(CC2CCCN2C(=O)Cc2cn3ccsc3n2)n1 (stereo unspecified),13.09,-1.899,6.773,7.042
O=C(O)C(F)(F)F.O=C(O)C(F)(F)F.[H][C@@]12CN(Cc3cccs3)C[C@]1([H])C(=O)N(CCN1CCCC1)C2,-15.5,-,-8.148,-
Cc1cc(CNc2ccnn2CC(C)C)ccc1-n1cncn1,1.791,-3.042,3.92,3.421
O=C(O)C(F)(F)F.O=C(O)C(F)(F)F.O=c1ccc2c(n1Cc1cccnc1)CCN(CC1CCOC1)CC2 (stereo unspecified),2.989,-,-31.21,-
Cc1cnn(CC2CN(CCCc3nc4ccccc4o3)CCO2)c1 (stereo unspecified),11.07,-46.26,-,3.655
CC(C)c1cc(C(=O)N2CCN(c3ccncc3)CC2)n(C)n1,-0.8999,-1.822,-19.89,0.9804
CC(c1cccc(Cl)c1)N(C)CCS(=O)(=O)CCC(N)=O (stereo unspecified),-1.304,-7.195,-,-3.2
COc1cc2ccccc2cc1C(=O)N1CCCC(c2nncn2C)C1 (stereo unspecified),7.896,-55.05,-,5.744
Cc1ccc2c(c1)C1(CCNCC1)CC2NC1CC1.Cl.Cl (stereo unspecified),-7.294,-,15.24,-
[H][C@@]12CN(Cc3cccnc3)C[C@]1([H])OCCN2Cc1c(C)noc1C,-2.128,-,4.877,-
Cn1nc(C(C)(C)C)cc1NC(=O)Cn1ccnc1,-0.1821,-1.553,14.67,-2.814
O=C(NCC1CCS(=O)(=O)C1)c1ccc2cccc(Cl)c2n1 (stereo unspecified),9.122,-6.479,-22.59,6.818
Cc1cccc(C(Nc2nccc(C)n2)C2CC2)n1 (stereo unspecified),15.35,-8.589,-54.38,-0.5981
COCCCC(=O)NCc1cccc(NC(N)=O)c1,6.667,8.572,-4.951,-0.6483
Cc1cc(C(=O)N2CCN[C@H](C)C2)c2ccc(F)cc2n1,36.82,19.93,-42.9,1.488
OC[C@H]1CN(C2Cc3ccccc3C2)C[C@H]1CN1CCC(O)CC1,8.984,-0.3682,-8.419,-7.807
CN(Cc1n[nH]c(=O)n1Cc1ccccc1F)S(C)(=O)=O,0.1494,-18.39,-6.7,7.403
Cc1cc(N2CCC(N(C)C(=O)c3sccc3C)CC2)nc(C)n1,-25.48,2.954,-14.88,0.1266
CC(C)(C)n1ncc2c1CCCC2NCc1cccc2c1OCO2 (stereo unspecified),-6.13,-5.614,-18.28,9.399
CCC(NC(=O)C1CCN(C(C)C)CC1)c1cn2cccnc2n1 (stereo unspecified),-32.08,-11.44,-10.01,1.025
Cc1nc2ccccc2c(=O)n1Cc1nnnn1C1CC1,-4.279,15.17,-72.64,-
CCC(=O)N1CCC(Cc2ccccc2-c2ccccc2)(C(N)=O)C1 (stereo unspecified),4.493,10.07,18.61,9.845
Cc1cnc2c(c1NCc1ccccn1)c(=O)n(C)c(=O)n2C,1.451,-3.268,-44.09,2.036

Repeated from the top, 5 entries:

CCC(C(=O)NCC1CCN(c2ccncc2)CC1)N(C)C (stereo unspecified) gave Toxoplasma: -1.202%; ClpP1P2: -11.66%; T. brucei: -13.72%; CoaBC: 1.899%.
O=C(O)C(F)(F)F.[H][C@@]12CN(Cc3csc(C)n3)C[C@]1([H])CN(C(=O)c1cnccn1)C2 gave Toxoplasma: 8.859%; T. brucei: 5.291%.
[H][C@]12CC[C@]([H])(CN(C(C)=O)C1)N(S(=O)(=O)c1ccccc1Cl)C2 gave Toxoplasma: 5.206%; T. brucei: -54.93%.
Cc1noc(C)c1CCC(=O)N1CCCN(Cc2cscn2)CC1 gave Toxoplasma: -9.315%; ClpP1P2: 21.8%; T. brucei: -12.2%; CoaBC: 1.33%.
C[C@@H]1CN(Cc2cc(C(F)(F)F)ccc2F)CC[C@@]1(O)C1CC1 gave Toxoplasma: -1.14%; ClpP1P2: 4.804%; T. brucei: -44.03%; CoaBC: 3.96%.

Measurements from “University of Dundee, Small-Polar-MMV Screening Library” (2021), ChEMBL document CHEMBL3988442.